Results reported in PubChem BioAssay AID314 (DTP/NCI, 2004).
The list shows only some results of the screen, not a fair sample: it gathers tests that were run many times, whatever their T/C, doses with no T/C, and many T/C values between a quarter and a half above the control. Other doses and runs of a compound stand elsewhere. T/C: endpoint of the treated group in % of that of the vehicle group. Some entries give survivors of the animals treated and no T/C: the source holds a T/C of zero for them, seemingly a mark for toxic or unscored doses. Some survivor counts are full or nearly so, which does not show that the dose was tolerated: the source hardly ever lists a survival T/C far under the control, and the zero likely stands for such cases as well. Counts of survivors are from the toxicity check (mostly the fifth day) where no day follows; animals may have died later. Schedules are NCI's codes, taken here to give the interval after Q, in days (D) or hours (H), and the number of doses after X. Some entries hold several experiments; their values stand side by side, smallest first. For survival time, this PubChem deposit counts one and a half times the control or more as active, and values a quarter to a half above the control carry no call in these data; other NCI protocols may use other cut-offs. Counts like (3×) count equal records among those shown. Some T/C values carry the count of animals alive at the toxicity check (mostly the fifth day); without a count, all were alive then.

System: DBA/2 mice, P1534 leukemia ip, survival T/C
Test: NCI In Vivo Anticancer Drug Screen. Data for tumor model P1534 Leukemia (intraperitoneal) in DBA/2 mice
Settings: T/C endpoint: mean survival time, schedule: Q01DX010 (ip), higher T/C = longer survival
Experimental: The antitumor activity of compounds was measured in mice bearing transplantable tumors. Survival or tumor size were measured and the results are expressed as the measurement made in the treated group (T) divided by the measurement made in the vehicle treated control group (C). The tumor model used in this assay is P1534 Leukemia (intraperitoneal) in DBA/2 mice

[1] = dose: 125.0 mg/kg/injection, vehicle: saline
[2] = dose: 250.0 mg/kg/injection, vehicle: saline
[3] = dose: 5.0 mg/kg/injection, vehicle: saline
[4] = dose: 10.0 mg/kg/injection, vehicle: saline
[5] = dose: 2.5 mg/kg/injection, vehicle: saline
[6] = dose: 40.0 mg/kg/injection, vehicle: saline
[7] = dose: 18.8 mg/kg/injection, vehicle: saline
[8] = dose: 37.5 mg/kg/injection, vehicle: saline
[9] = dose: 16.0 mg/kg/injection, vehicle: saline
[10] = dose: 2.0 mg/kg/injection, vehicle: saline
[11] = dose: 8.0 mg/kg/injection, vehicle: saline
[12] = dose: 32.0 mg/kg/injection, vehicle: saline
[13] = dose: 64.0 mg/kg/injection, vehicle: saline
[14] = dose: 128.0 mg/kg/injection, vehicle: saline
[15] = dose: 4.0 mg/kg/injection, vehicle: saline

CC(=O)Nc1ccc2nc3ccc(NC(C)=O)cc3[n+](-c3ccccc3)c2c1
survivor count (dose: 31.3 mg/kg/injection, vehicle: saline): 6 of 6
survivor count (dose: 62.5 mg/kg/injection, vehicle: saline): 6 of 6
survivor count [1]: 5 of 6
survivor count [2]: 6 of 6

Cn1cnc([N+](=O)[O-])c1Sc1nc(N)nc2nc[nH]c12
survivor count [3]: 6 of 6
survivor count [4]: 6 of 6

Oc1cc(CN(CCCl)CCCl)c(O)cc1CN(CCCl)CCCl
T/C (dose: 1.25 mg/kg/injection, vehicle: saline): 128 % of control (2×)
survivor count [5]: 6 of 6
survivor count [3]: 6 of 6
survivor count [4]: 6 of 6

CC1CCOS(=O)O1 (stereo unspecified)
survivor count [6]: 6 of 6
survivor count (dose: 80.0 mg/kg/injection, vehicle: saline): 5 of 6

CN(C)c1nc(N(C)C)nc(N(C)C)n1
T/C [7]: 88, 96, 103 % of control
survivor count [7]: 6 of 6
T/C [8]: 92 [5 of 6 alive], 96, 107 % of control
survivor count [8]: 6 of 6
T/C (dose: 75.0 mg/kg/injection, vehicle: saline): 100 (2×), 103, 107 % of control

Cc1cc(N(CCCl)CCCl)ccc1N=Nc1ccccc1C(=O)O
T/C [4]: 134 % of control
survivor count [6]: 6 of 6

CC(CCC(C)OS(C)(=O)=O)OS(C)(=O)=O (stereo unspecified)
survivor count [9]: 6 of 6

COC(=O)c1[nH]c(=O)[nH]c(=O)c1F
survivor count [10]: 6 of 6
survivor count [11]: 5 of 6

Nc1nncs1
T/C (dose: 1.88 mg/kg/injection, vehicle: saline): 100 (2×), 103, 107 % of control
T/C (dose: 3.75 mg/kg/injection, vehicle: saline): 100 (3×) and 103 % of control
T/C (dose: 7.5 mg/kg/injection, vehicle: saline): 100, 107 (2×), 111 % of control [5 of 6 alive]
survivor count (dose: 15.0 mg/kg/injection, vehicle: saline): 6 of 6

CN(C)c1ccc(/C=C/c2ccnc3ccccc23)cc1
survivor count [12]: 6 of 6
survivor count [13]: 5 of 6
survivor count [14]: 4 of 6
survivor count (dose: 256.0 mg/kg/injection, vehicle: saline): 0 of 6

C[C@]12CC[C@H](OC3OC(CO)C(O)C(O)C3O)C[C@H]1CC[C@@H]1[C@@H]2CC[C@]2(C)[C@@H](C3=CCOC3=O)CC[C@]12O (stereo partly specified)
survivor count [10]: 5 of 6
survivor count [15]: 2 of 6

Nc1nc(=S)c2ncn(C3OC(CO)C(O)C3O)c2[nH]1 (stereo unspecified)
survivor count (dose: 1.0 mg/kg/injection, vehicle: saline): 6 of 6
survivor count [10]: 6 of 6
survivor count [5]: 6 of 6
survivor count [15]: 6 of 6
survivor count [3]: 5 of 6
survivor count [11]: 6 of 6
survivor count [4]: 6 of 6
survivor count [9]: 6 of 6
survivor count [12]: 6 of 6
survivor count [13]: 6 of 6

CSc1ncnc2nc[nH]c12
survivor count (dose: 12.5 mg/kg/injection, vehicle: saline): 6 of 6
survivor count (dose: 25.0 mg/kg/injection, vehicle: saline): 6 of 6
survivor count (dose: 50.0 mg/kg/injection, vehicle: saline): 5 of 6 and 6 of 6

NCCCCCCNC(=O)CCC(=O)NCCCCCCN
survivor count [12]: 5 of 6
survivor count [14]: 4 of 6

Nc1ncccc1C(=O)O
survivor count [1]: 4 of 6
survivor count [2]: 6 of 6
survivor count (dose: 500.0 mg/kg/injection, vehicle: saline): 5 of 6

CN[C@H]1CCc2cc(OC)c(OC)c(OC)c2-c2ccc(OC)c(=O)cc21
survivor count (dose: 1.57 mg/kg/injection, vehicle: other): 6 of 6
survivor count (dose: 2.5 mg/kg/injection, vehicle: other): 6 of 6
survivor count (dose: 3.13 mg/kg/injection, vehicle: other): 5 of 6
survivor count (dose: 5.0 mg/kg/injection, vehicle: other): 6 of 6
survivor count (dose: 6.25 mg/kg/injection, vehicle: other): 6 of 6
survivor count (dose: 12.5 mg/kg/injection, vehicle: other): 4 of 6
